Among the data in US20160130351A1 (NOVIMMUNE S A, published 2016) are binding values, retold here.

The chains behind the UniProt entries cited, without tags or fusion partners. Where a name states a change or a piece, a line headed by the entry shows the natural chain unless it says otherwise.
UniProt P79341: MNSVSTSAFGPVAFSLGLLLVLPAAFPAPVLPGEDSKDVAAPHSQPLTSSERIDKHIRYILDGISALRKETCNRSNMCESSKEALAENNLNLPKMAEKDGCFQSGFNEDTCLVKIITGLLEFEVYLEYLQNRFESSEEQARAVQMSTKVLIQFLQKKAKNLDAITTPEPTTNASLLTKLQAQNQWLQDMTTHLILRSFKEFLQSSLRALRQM

These are yes or no findings as the source states them, for the method shown. Some binding calls cover weakened binding; strength is not graded here.

The target of the test is native cynomolgus IL-6Rc (cynomolgus IL-6 + scyIL-6R) (cynomolgus monkey) (UniProt P79341+A0A2K5WN54). Put plainly: heading of Example 9 (STAT3 Luciferase reporter assay with cynomolgus IL-6 + scyIL-6R). For orientation: Reporter assays use an easily measured gene product as a stand-in for the process of interest.

B1: NI-1201 wild type (NI-1201-WT) antibody (antibody, V domains shown)
VH: QVQLVQSGAEVKKPGSSVKVSCKASGGTFSSYAISWVRQAPGQGLEWMGGIIPLFDTTKYAQQFQGRVTITADESTSTAYMELSSLRSEDTAVFYCARDRDILTDYYPMGGMDVWGQGTTVTVSS
VL: AIQLTQSPSSLSASVGDRVTITCRASQGISSVLAWYQQKPGKAPKLLIYDASSLESGVPSRFSGSGSGTDFTLTISSLQPEDFATYYCQQSNSYPLTFGGGTKVEIKR
notes: Fully human monoclonal IgG (captured by anti-human IgG Fc in Biacore); also called 39B9 VL1
Regarding B1, the binding entry was “binds”.
